Results are given in words; binding and its absence hold for the method and conditions named. Binding seen in cells or lysates may run through a third protein. Some results given as binding are weak or reduced against the parent protein; the word gives no strength.
Legend:
[1] = target: EGFP- and MycFlag-tagged BRD2, wild type (mouse) (UniProt Q7JJ13); assay: co-IP; EGFP- and MycFlag-tagged BRD2 constructs expressed in 293T cells, immunoprecipitated with GFP-Trap agarose beads; Western blot for BRD2 and NIPBL
[2] = target: BRD2 (mouse (endogenous in CH12F3-2A)) (UniProt Q7JJ13); assay: co-IP; nuclear extracts from CIT-activated CH12F3-2A cells immunoprecipitated with BRD2 or BRD4 antibodies or control rabbit IgG (Dynabeads Protein G); Western blot of the precipitated proteins

Protein sequences, listed by entry. Tags and fused reporters are not part of them.
UniProt Q7JJ13: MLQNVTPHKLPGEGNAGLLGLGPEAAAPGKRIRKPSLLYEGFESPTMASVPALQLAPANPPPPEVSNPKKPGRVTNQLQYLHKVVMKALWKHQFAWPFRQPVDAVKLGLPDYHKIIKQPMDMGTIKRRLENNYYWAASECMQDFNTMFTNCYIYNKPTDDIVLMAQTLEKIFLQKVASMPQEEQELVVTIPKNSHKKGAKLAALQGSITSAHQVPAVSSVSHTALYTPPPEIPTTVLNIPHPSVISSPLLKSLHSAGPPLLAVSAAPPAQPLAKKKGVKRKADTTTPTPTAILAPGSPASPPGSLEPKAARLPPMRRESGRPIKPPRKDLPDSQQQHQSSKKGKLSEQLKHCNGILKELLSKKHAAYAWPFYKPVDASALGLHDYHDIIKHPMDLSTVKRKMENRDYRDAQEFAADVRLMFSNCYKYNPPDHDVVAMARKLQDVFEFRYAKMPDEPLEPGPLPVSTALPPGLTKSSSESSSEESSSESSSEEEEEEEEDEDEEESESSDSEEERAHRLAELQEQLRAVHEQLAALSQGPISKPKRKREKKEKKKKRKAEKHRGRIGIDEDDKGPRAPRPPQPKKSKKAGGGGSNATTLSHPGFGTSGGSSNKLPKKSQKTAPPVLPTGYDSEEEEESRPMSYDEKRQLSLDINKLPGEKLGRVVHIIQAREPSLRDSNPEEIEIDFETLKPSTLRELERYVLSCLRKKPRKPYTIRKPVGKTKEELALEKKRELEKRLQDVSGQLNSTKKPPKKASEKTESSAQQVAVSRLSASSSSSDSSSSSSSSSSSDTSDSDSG
UniProt Q6KC79: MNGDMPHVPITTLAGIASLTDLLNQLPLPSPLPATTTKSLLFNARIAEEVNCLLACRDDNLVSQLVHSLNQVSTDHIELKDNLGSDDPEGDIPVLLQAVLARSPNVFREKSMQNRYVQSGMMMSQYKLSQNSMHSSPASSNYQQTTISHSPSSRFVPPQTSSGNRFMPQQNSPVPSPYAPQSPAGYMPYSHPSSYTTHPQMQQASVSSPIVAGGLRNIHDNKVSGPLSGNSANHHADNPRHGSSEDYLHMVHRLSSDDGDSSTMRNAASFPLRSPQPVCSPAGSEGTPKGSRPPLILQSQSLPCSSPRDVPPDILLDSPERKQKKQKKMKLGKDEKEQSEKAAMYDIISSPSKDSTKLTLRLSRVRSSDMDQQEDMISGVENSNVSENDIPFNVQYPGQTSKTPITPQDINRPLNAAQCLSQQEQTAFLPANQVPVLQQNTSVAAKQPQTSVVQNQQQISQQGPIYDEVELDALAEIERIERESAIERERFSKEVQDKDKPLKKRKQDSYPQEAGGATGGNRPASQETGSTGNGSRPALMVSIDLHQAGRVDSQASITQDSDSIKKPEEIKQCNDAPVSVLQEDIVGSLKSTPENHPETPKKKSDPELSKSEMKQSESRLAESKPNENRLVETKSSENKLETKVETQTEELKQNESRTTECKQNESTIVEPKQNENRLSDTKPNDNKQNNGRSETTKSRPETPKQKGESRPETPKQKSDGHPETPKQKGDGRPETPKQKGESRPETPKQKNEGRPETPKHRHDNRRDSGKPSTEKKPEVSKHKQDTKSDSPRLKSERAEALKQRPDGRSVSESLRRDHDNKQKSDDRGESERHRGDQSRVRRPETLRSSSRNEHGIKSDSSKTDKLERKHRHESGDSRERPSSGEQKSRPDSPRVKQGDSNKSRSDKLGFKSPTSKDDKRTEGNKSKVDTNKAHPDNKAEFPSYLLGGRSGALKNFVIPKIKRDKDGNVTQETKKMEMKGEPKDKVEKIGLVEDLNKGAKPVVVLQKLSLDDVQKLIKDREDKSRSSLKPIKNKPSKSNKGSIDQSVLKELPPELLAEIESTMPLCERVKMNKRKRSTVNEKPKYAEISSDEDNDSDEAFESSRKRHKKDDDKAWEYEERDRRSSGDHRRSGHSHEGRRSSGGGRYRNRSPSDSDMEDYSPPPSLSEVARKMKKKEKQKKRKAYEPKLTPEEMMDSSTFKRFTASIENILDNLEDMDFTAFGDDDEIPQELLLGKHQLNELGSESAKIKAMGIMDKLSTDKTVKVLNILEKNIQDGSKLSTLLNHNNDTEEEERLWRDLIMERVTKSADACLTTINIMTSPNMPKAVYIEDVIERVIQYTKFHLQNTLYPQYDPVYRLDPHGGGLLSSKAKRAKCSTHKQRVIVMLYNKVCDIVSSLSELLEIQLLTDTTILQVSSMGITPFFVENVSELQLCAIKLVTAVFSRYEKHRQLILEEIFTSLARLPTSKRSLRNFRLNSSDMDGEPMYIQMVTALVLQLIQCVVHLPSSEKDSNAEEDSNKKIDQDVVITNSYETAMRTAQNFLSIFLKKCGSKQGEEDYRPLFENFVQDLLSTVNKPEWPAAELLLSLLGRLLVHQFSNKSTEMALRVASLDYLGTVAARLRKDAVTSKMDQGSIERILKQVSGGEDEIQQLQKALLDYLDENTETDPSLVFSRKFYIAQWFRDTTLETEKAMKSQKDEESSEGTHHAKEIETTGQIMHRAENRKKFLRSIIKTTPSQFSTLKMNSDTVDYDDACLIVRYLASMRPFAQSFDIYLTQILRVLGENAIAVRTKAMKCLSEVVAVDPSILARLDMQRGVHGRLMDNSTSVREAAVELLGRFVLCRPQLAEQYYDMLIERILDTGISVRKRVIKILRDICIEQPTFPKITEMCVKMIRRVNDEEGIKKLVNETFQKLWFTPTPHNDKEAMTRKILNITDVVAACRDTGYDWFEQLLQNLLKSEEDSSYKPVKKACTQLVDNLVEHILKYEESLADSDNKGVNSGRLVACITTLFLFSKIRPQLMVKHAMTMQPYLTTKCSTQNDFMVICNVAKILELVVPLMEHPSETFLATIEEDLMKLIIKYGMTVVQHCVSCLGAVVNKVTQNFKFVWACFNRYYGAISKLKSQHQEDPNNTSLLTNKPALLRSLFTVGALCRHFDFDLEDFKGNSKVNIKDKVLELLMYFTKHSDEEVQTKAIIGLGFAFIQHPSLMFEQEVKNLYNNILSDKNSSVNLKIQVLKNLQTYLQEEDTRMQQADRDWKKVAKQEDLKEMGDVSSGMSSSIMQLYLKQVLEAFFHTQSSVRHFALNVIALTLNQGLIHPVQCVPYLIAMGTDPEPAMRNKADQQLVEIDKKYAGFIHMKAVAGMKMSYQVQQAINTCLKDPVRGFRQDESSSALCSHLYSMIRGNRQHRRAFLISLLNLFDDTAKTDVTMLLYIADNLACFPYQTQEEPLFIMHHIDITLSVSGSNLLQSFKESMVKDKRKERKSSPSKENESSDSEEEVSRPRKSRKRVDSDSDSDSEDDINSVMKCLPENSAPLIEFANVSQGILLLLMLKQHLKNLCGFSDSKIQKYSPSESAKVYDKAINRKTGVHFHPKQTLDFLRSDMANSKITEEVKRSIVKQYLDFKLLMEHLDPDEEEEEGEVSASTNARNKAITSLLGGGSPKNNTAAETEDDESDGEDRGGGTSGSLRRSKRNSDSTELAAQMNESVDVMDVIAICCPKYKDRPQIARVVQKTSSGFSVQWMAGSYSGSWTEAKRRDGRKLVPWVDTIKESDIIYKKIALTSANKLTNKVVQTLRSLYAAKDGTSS
UniProt Q6KCD5: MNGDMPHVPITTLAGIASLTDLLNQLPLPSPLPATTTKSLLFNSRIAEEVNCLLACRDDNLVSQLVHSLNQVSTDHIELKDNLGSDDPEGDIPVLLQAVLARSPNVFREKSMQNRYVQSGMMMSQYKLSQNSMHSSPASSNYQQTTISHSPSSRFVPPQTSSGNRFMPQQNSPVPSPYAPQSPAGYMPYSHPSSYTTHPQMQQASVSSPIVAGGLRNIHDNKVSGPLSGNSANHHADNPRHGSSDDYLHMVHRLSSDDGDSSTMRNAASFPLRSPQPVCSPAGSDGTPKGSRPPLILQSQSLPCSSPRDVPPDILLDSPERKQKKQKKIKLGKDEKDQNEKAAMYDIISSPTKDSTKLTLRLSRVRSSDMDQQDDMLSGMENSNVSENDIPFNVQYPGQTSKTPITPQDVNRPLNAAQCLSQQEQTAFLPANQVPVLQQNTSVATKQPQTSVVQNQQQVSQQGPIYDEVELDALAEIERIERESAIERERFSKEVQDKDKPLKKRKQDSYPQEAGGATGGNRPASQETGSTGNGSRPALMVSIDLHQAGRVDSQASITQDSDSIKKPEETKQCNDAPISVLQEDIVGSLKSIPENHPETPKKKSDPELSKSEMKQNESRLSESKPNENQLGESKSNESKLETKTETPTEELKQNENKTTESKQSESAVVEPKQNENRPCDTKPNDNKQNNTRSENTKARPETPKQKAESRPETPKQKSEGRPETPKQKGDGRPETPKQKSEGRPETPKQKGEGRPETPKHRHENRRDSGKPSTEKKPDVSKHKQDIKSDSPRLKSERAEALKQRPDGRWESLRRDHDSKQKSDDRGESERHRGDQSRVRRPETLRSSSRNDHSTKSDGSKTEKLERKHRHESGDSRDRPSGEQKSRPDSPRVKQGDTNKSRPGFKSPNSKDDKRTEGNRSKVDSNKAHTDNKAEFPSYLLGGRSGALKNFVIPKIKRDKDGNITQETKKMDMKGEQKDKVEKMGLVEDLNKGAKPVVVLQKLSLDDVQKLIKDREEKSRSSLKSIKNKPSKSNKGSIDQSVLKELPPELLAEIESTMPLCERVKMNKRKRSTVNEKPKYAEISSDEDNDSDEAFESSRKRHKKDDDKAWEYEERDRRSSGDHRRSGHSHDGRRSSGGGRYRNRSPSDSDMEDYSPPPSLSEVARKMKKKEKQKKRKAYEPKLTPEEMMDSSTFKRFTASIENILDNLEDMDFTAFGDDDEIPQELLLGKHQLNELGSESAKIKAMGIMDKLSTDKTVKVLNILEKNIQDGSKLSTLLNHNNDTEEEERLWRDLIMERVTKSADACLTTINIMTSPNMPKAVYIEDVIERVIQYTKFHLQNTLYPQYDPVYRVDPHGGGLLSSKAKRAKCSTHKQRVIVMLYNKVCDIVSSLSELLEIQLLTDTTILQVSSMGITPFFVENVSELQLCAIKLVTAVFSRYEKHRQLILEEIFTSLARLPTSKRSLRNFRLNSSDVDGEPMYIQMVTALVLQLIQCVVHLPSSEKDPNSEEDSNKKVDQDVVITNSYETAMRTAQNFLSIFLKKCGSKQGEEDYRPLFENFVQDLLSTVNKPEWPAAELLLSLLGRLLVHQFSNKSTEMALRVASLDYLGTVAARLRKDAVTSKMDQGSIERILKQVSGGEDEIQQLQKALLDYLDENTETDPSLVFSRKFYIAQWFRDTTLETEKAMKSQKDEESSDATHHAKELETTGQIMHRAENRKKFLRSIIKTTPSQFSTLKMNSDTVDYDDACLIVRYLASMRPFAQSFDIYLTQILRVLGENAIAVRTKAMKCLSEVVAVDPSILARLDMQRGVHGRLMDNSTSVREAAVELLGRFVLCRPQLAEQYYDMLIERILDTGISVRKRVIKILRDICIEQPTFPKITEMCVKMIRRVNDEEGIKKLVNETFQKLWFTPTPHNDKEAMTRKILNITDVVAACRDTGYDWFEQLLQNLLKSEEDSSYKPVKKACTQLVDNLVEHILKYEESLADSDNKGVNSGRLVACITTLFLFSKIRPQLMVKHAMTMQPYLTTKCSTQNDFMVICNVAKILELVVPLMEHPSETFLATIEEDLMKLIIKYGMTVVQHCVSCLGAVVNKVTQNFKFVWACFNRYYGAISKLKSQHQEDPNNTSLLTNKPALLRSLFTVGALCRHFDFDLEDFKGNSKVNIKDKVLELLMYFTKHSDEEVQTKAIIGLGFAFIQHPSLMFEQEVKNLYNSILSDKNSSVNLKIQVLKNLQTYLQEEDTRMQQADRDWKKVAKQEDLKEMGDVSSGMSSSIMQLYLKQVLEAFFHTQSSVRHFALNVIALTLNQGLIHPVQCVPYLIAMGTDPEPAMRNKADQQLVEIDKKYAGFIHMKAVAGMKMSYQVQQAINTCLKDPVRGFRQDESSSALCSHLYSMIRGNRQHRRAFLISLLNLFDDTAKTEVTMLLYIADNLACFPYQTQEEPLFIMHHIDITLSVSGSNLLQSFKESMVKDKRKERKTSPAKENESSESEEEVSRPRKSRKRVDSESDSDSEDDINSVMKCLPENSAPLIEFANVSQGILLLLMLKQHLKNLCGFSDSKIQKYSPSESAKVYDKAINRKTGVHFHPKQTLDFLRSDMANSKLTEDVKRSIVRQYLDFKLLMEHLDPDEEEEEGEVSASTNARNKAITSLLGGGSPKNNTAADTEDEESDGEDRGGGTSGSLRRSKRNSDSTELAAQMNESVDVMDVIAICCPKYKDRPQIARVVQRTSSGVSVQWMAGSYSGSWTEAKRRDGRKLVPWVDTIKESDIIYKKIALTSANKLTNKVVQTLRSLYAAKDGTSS

binding [1] | binding [2] | Substance
binds |  | NIPBL (endogenous in 293T) (from UniProt Q6KC79 1-2804)
 | binds | NIPBL (mouse, endogenous in CH12F3-2A) (from UniProt Q6KCD5 1-2798)

Reference: PMC11077081
